From US20250281465A1, “MOLECULES THAT ENHANCE EXTRACELLULAR VESICLE RELEASE” (priority 2022, published 2025)

Test system: mBMDCs
Assay: EV release from mBMDCs (differential ultracentrifugation, MRPS)
Settings: vs EVveh

With `CCOC(=O)c1c(NS(=O)(=O)c2cccc3nsnc23)sc(C)c1C` [compound 634, Ethyl 2-(benzo[c][1,2,5]thiadiazole-4-sulfonamido)-4,5-dimethylthiophene-3-carboxylate] the “size distribution of EVs” value was “similar”.

`C[C@H](CCC(=O)O)C[C@H](C)C[C@H](C)C(=O)/C=C(\O)[C@H](C)C[C@H](C)C/C=C/[C@@H](C)[C@@H](O)[C@@H](C)[C@@H](O)C[C@@H]1CC[C@@](C)([C@H]2CC[C@@](C)([C@@H](C)O)O2)O1` [ION, ionomycin, reference compound] was tested, and the “size distribution of EVs” value was “similar”.
